Assay results from PubChem BioAssay AID624291 (National Center for Advancing Translational Sciences (NCATS), 2012).
Out of some 350,000 compounds screened, about 220 (0.063%) were called active. Inconclusive results, whose numbers are uncertain, are shown with a selection of clear calls. Calls come from the whole dose curve; as a rule, active = well fitted activation curve with a large enough effect; inconclusive = small, poorly fitted or top-dose-only effect; inactive = no such curve, though single readings can be large or run the other way. A potency beside an inconclusive call is a rough fit, not a confirmed value.
Potency is the fitted concentration of half-maximal effect.

Test: qHTS for Activators of Integrin-Mediated Alleviation for Muscular Dystrophy; note: nearly all actives have a fitted effect of over 60% in size;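 for activation: 100% = response of the positive control SU9516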
Conditions: alpha7betagal myoblasts, beta-gal FDG fluorescence, 48 h; activation: at 38.3 µM (top of the series)
Outline: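 alpha7betagal+/- myoblasts (passage 13, 250/well) treated 48 h at 37C with compounds at 1:260 dilution of DMSO stock. Lysed, then beta-galactosidase activity read as FDG fluorescence (ex 480/em 540) after 30 min, with pre-read for autofluorescence.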
With `COC(=O)C1=CN(c2ccc(F)cc2)C=C(C(=O)OC)C1c1cccc([N+](=O)[O-])c1` the “activation” value was inactive: 27.2%. For `Cc1ccc(C)c(NC(=O)CCN2CC(C)CC(C)C2)c1` (stereo not given), the Potency was inconclusive: 3.16 µM [activator, partial curve, poor fit]. In the case of `CC1CCCCN1C(=S)NC(=O)c1cccs1` (stereo not given), the Potency is reported as inconclusive: 5.01 µM [activator, single point]. In the case of `Cc1cc2oc(=O)cc(CN3CCC(C)CC3)c2cc1C`, the Potency is reported as inconclusive: 3.16 µM [activator, single point]. In the case of `O=Cc1ccc2c(c1)CCN2Cc1ccccc1`, the Potency is reported as inconclusive: 5.01 µM [activator, single point]. With `C[C@@]12C(=O)Nc3ccc(F)cc3C(=O)N1[C@H]1c3ccccc3OC[C@@H]1[C@@H]2c1ccccc1` the “activation” value was inactive: 15.1%. With `O=S(=O)(c1ccc(F)cc1)N1CCN(Cc2cc3c(cc2Br)OCCO3)CC1` the “activation” value was inactive: -34.2%. With `CCCCn1c(=O)[nH]c(=O)c2c1nc(-c1ccc(-c3ccccc3)cc1)n2C` the Potency was inconclusive: 5.01 µM [activator, single point]. With `NC(=O)c1ccccc1OCc1cccc2ccccc12` the Potency was inconclusive: 5.01 µM [activator, single point]. For `Cc1nn(C(C)(C)C)c(OC(=O)CC(C)C)c1S(=O)(=O)c1ccccc1`, the Potency was inconclusive: 2 µM [activator, partial curve, poor fit]. With `C/C(CC(=O)Nc1cc(C)ccn1)=N\NC(=O)c1ccc(C(C)(C)C)cc1` the “activation” value was inactive: -11.8%. In the case of `CC1CC(=S)Nc2ccccc2N1C(=O)Nc1ccccc1` (stereo not given), the Potency is reported as inconclusive: 2.82 µM [activator, full curve, poor fit]. For `COc1ccc(-c2csc(NC(=O)CSCc3c(C)noc3C)n2)c(OC)c1`, the Potency was inconclusive: 20 µM [activator, single point]. With `CCCN(C(=O)c1ccco1)c1nnc(-c2cccc(C)c2)s1` the Potency was inconclusive: 3.55 µM [activator, single point]. In the case of `COc1cccc2[nH]c(=O)c(-c3ccccc3)cc12`, the Potency is reported as inconclusive: 2.24 µM [activator, partial curve, poor fit]. In the case of `COc1ccc(COCC(O)CN2CCC(C(N)=O)CC2)cc1` (stereo not given), the Potency is reported as inconclusive: 3.16 µM [activator, partial curve, poor fit]. For `CN(C)CCNC(=O)Cn1ccc2cc(S(=O)(=O)N3CCCCCC3)ccc21`, the Potency was inconclusive: 3.55 µM [activator, single point]. For `CCOc1ccccc1NC(=O)CCc1c(C)nn(-c2ccc(N3CCCCC3)nn2)c1C`, the Potency was inconclusive: 5.01 µM [activator, single point]. For `CC(=O)Nc1ccc(-c2csc(NC(=O)Cc3ccccc3F)n2)cc1`, the Potency was inconclusive: 7.08 µM [activator, full curve, poor fit]. With `CC(C)CC(=O)N=Nc1c(O)[nH]c2ccccc12` the Potency was inconclusive: 2.24 µM [activator, partial curve, poor fit]. In the case of `Cc1ccnc(NC(=O)c2ccccc2NC(=O)c2ccc(Cl)cc2Cl)c1`, the “activation” value is reported as inactive: -41%. With `O=C(Nc1ccccc1)N1CCC(=S)Nc2ccccc21` the “activation” value was inactive: 26.9%. In the case of `Cc1nc(C(=O)N/N=C/c2[nH]ncc2Br)cs1`, the Potency is reported as inconclusive: 5.01 µM [activator, partial curve, poor fit]. In the case of `CCOC(=O)Cc1nnc2c(Nc3ccc(C)cc3)nc3nonc3n12`, the Potency is reported as inconclusive: 11.2 µM [activator, partial curve, poor fit]. For `NC(=O)Cn1c(O)c(N=NC(=O)CNC(=O)/C=C/c2ccccc2)c2ccccc21`, the “activation” value was inactive: 2.4%. For `COc1ccc(CCN(C)CCC(=O)Nc2cc(C)ccc2C)cc1OC`, the Potency was inconclusive: 8.91 µM [activator, partial curve, poor fit]. In the case of `CCc1nnc(NC(=O)c2ccc(Br)o2)s1`, the Potency is reported as inconclusive: 28.2 µM [activator, single point]. With `CCOc1cc(C)c(S(=O)(=O)Nc2ccc(Cl)cn2)cc1C` the “activation” value was inactive: 37.5%. For `COc1ccc(Oc2nc(-c3ccccc3)ncc2C(=O)O)cc1`, the Potency was inconclusive: 28.2 µM [activator, single point]. In the case of `CCOC(=O)N1CCN(Cc2nc3cc(NC(C)=O)ccc3n2CC)CC1`, the Potency is reported as inconclusive: 3.98 µM [activator, full curve, poor fit]. With `COc1ccc(Nc2nc(N)nc(CSc3nc(C)cc(C)n3)n2)cc1` the Potency was inconclusive: 10 µM [activator, partial curve, poor fit]. With `CC(=O)c1ccc(S(=O)(=O)N2CCCC(N(C)CCc3ccccc3)C2)cc1` (stereo not given) the “activation” value was inactive: 0%. For `O=C(OC1C2C=CC1C1C(=O)NC21)c1ccccc1` (stereo not given), the “activation” value was inactive: 12%. With `CSc1ncccc1C(=O)Nc1cccc(C)n1` the Potency was inconclusive: 2.24 µM [activator, partial curve, poor fit]. For `C=C(CC[C@@H](O)C(C)(C)O)[C@H]1CC[C@]2(C)[C@@H]1CCC1[C@@]3(C)CCC(=O)C(C)(C)C3CC[C@]12C` (stereo not given in full), the “activation” value was inactive: 15.4%. In the case of `C/C(=N\NC(=O)c1nnn(-c2nonc2N)c1CN(C)c1ccccc1)c1cccs1`, the Potency is reported as inconclusive: 3.16 µM [activator, partial curve, poor fit]. With `C=CCOc1ccc2ccccc2c1CNn1c(C)n[nH]c1=S` the Potency was inconclusive: 10 µM [activator, single point]. In the case of `O=C(Nc1nc(-c2ccc(F)c(F)c2)cs1)Nc1ccc(F)cc1F`, the “activation” value is reported as inactive: -33.3%. For `O=C(Nc1cccc(-c2nc3ccccc3[nH]2)c1)c1ccc(C(=O)Nc2cccc(-c3nc4ccccc4[nH]3)c2)cc1`, the Potency was inconclusive: 12.6 µM [activator, partial curve, poor fit]. With `CCOC(=O)c1ccc(NCc2nc3ccccc3n2C)cc1` the “activation” value was inactive: 12.5%. For `CCC(C(=O)OC)n1c(-c2ccccc2)nc2ccccc2c1=O` (stereo not given), the Potency was inconclusive: 5.01 µM [activator, single point]. With `Cc1cccc(C(=O)N2CC3(C)CC2CC(C)(C)C3)c1` (stereo not given) the Potency was inconclusive: 31.6 µM [activator, single point]. In the case of `Cc1ccc2oc(=O)cc(CN3CCN(C/C=C/c4ccccc4)CC3)c2c1`, the “activation” value is reported as inactive: 11.5%. In the case of `Cc1ccc(SCC(=O)OCC(=O)NCCC2=CCCCC2)cc1`, the “activation” value is reported as inactive: 14%. For `CCC(=O)Nc1c(S(=O)(=O)c2ccccc2)c2nc3ccccc3nc2n1C(C)c1ccccc1` (stereo not given), the Potency was inconclusive: 3.16 µM [activator, single point]. For `CC1CN(C2=N/C(=C/c3ccc4c(c3)OCO4)C(=O)N2)CC(C)O1` (stereo not given), the Potency was inconclusive: 2.51 µM [activator, single point]. With `COc1c(C(=O)Nc2nccs2)ccc2ccccc12` the Potency was inconclusive: 20 µM [activator, single point]. In the case of `Cc1ccc(N=CC=C2OC(C)(C)C(C)(C)O2)cc1`, the “activation” value is reported as inactive: -5.95%. For `Cc1n[nH]c(C)c1CCNC(=O)C1CCC(=O)N(Cc2ccccc2F)C1` (stereo not given), the Potency was inconclusive: 5.01 µM [activator, single point]. In the case of `CSCCn1c(C(C)(C)C)cc(C(=O)O)c1C`, the Potency is reported as inconclusive: 15.8 µM [activator, single point]. In the case of `Cc1ccccc1-n1c(SCC(=O)N2CCOCC2)nc(O)c(Cc2ccccc2)c1=O`, the Potency is reported as inconclusive: 3.16 µM [activator, partial curve, poor fit]. In the case of `Cn1c(SCC(=O)N/N=C/C=C/c2ccccc2[N+](=O)[O-])nc2ccccc21`, the “activation” value is reported as inactive: -40.3%. In the case of `Cc1ccc(Cn2c(SCCN3CCOCC3)nc3c2c(=O)n(C)c(=O)n3C)cc1`, the Potency is reported as inconclusive: 11.2 µM [activator, single point]. For `CCCCC(=O)Nc1ccc(N2CCCC2)cc1`, the “activation” value was inactive: 22.1%. For `O=C(CCC(=O)N1CCN(c2ccc(F)cc2)CC1)c1ccccc1`, the Potency was inconclusive: 1.26 µM [activator, partial curve, poor fit]. For `Cc1cccc(Nc2nnc(SC/C(O)=C(\C#N)c3nc4ccccc4[nH]3)s2)c1C`, the “activation” value was inactive: 2.97%. For `CCSc1ccc(-c2cccc([N+](=O)[O-])c2)nn1`, the Potency was inconclusive: 5.01 µM [activator, single point]. In the case of `NC(=O)c1ccc(-n2nnnc2SCC(=O)Nc2ccccc2)cc1`, the Potency is reported as inconclusive: 17.8 µM [activator, single point]. For `COc1ccc(NC(=O)Cc2cccc3ccccc23)cc1`, the Potency was inconclusive: 0.501 µM [activator, partial curve, poor fit]. In the case of `C[C@H](NC(=O)[C@H](Cc1ccccc1)n1c(=O)[nH]c2ccccc2c1=O)C(=O)N1CCC(C(=O)O)CC1`, the “activation” value is reported as inactive: 0%. In the case of `NC(=O)C1=C(N=C2CCCCC2)CCCC1`, the “activation” value is reported as inactive: 22.3%. For `Cc1cccn2c(=O)c(C=C(C#N)C#N)c(N3CCN(c4cccc(Cl)c4)CC3)nc12`, the “activation” value was inactive: -7.32%. For `O=C(NCCn1cccn1)C1CCC(=O)N(CCc2cccc(F)c2)C1` (stereo not given), the Potency was inconclusive: 5.01 µM [activator, single point]. With `COc1ccc(C)cc1NC(=O)c1ccc(CN2CCc3ccccc3C2)cc1` the “activation” value was inactive: -5.76%. For `O=C(N/N=C/c1ccc(N2CCOCC2)s1)c1ccccc1Cl`, the Potency was inconclusive: 5.01 µM [activator, single point]. With `CC(C)CCN(C(=S)Nc1cccc(F)c1)C(C)c1cccs1` (stereo not given) the “activation” value was inactive: -13.6%. With `CC(NC(=O)c1cccs1)c1ccc(Cl)cc1` (stereo not given) the Potency was inconclusive: 5.01 µM [activator, partial curve, poor fit]. For `CC(=O)c1ccc(NC(=O)CSc2nnc(C3CC3)n2C)cc1`, the Potency was inconclusive: 3.16 µM [activator, partial curve, poor fit]. With `CC(C)(C)c1ccc(/C=C(\c2nc3ccccc3[nH]2)S(=O)(=O)c2ccccc2)cc1` the “activation” value was inactive: -55.7%. For `O=c1ccnc(Nc2ccc([N+](=O)[O-])cc2)[nH]1`, the Potency was inconclusive: 2.82 µM [activator, partial curve, poor fit].
